First the molecules themselves.
B1: il2ra_site2_3nfp_normal_mot_HHH_b1_04781_af2_000000057_0001_1_18_H_._HHH_b2_00872_0001_0000900046_0000001_1 (protein)
chain: SSSSDKESLEEAIRMALDSAEALNDEEVFERIRELLEEFKEEGDPRYTLEAYELALEAYRKSSSS
B2: il2ra_site2_2erj_sap_21_mot_ems_3hM_329_000000017_0001_1_19_H_._HHH_b1_02696_0001_0000100008_0000001_0_0001 (protein)
chain: SSSSDWLHKLYRLALELLRLVAEGDEERAQELIEELKELAEETDSPNVKEIVEALERKLNSSSSS
B3: il2ra_site1_1z92_sap_19_mot_HHH_b2_03511_af2_000000113_0001_41_54_H_._HHH_b2_01993_af2_0001_0000400041_0000001_0_0001 (protein)
chain: DEAEEVIERAIEAVERGDPEEVRRLLEKLIEHTGDPALRFLLEVLERKLEAGNYKAARAILEKSR
B4: il2ra_site2_2erj_normal_mot_af86707857d369f3e1d85dcabc5f9321_0001_000000201_0001_14_29_H_._HHH_b2_07982_0001_0000700014_0000001_0 (protein)
chain: SSSSSDEEREEAEELIEEARQIPDPHRAAAVAIDAAHLAARANDEELLEEIRELFVRIYESSSSS
B5: il2ra_site1_1z92_sap_20_mot_HHH_b1_07431_000000213_0001_23_39_H_._048aa698b66f5fcbf1a9fbadf753f27c_0001_af2_0001_0000100002_0000001_0_0001_af2pred_0001_af2pred_ … (protein)
chain: NKMEELVEQILKLAGSPEKAVRFVERFAKLAERRGDPETAEELLEVAAKILGDPRLEELLEEIRK
B6: il2ra_site2_3nfp_sap_28_mot_HHH_b1_07198_000000084_0001_1_18_H_._ems_3hC_185_0001_0000100001_0000001_0_0001 (protein)
chain: SSSSDEEERLEELRERIEKLEKEGDRHEVAKLLIELTKIAAELNDEEAAKFVLRLYKELKSSSSS
B7: il2ra_site2_2erj_sap_15_mot_HHH_b1_06342_000000252_0001_1_18_H_._HHH_b2_02730_0001_0000200010_0000001_0_0001 (protein)
chain: SSSSSSSDWELFAEVAHRAWELGDFEVWSRVAELFYRYDREGDPEYREEAEELLEELRSSSSSSS
B8: il2ra_site1_2b5i_normal_mot_HHH_b1_00095_000000042_0001_1_14_H_._HHH_b1_08112_af2_0001_0000400045_0000001_0_af2pred_dldesign_0_af2pred (protein)
chain: SSSSSPVREEVERLIAEARALKAAGRRKEALETLERAHRLAAAADDEELQDEIDELAREVSSSSS
B9: il2ra_site2_3nfp_normal_mot_HHH_b1_07498_000000011_0001_1_19_H_._HHH_b2_02720_0001_0000200008_0000001_0_af2pred_0001_af2pred_1 (protein)
chain: SSSSDEEYRLAFLLALVKLAIEQNDPELVELALRRAEKLAKELNDEEVLRELEELEEKFNSSSSS
B10: il2ra_site2_2erj_normal_mot_HHH_b1_04491_000000173_0001_1_17_H_._HHH_b1_01387_0001_0000400008_0000001_0 (protein)
chain: SSSSSEEQEEAEELLEEIKKIPNPQEAAEVLLELARLAHESRDPEVHRIAWEALRYLARLSSSSS
B11: il2ra_site2_3nfp_normal_mot_2b1f115384cdfca4a5db2aa6683d1a54_0001_af2_000000285_0001_52_65_H_._0bcd393228a558932df86f9a4d776609_0001_af2_0001_0000200001_0000001 … (protein)
chain: DRELRRLAHELYERGDRDAAAVVILAIELLLEGVPPEEVKEILERAAKKAGVPPELIEQIEEAVE
B12: il2ra_site2_2erj_normal_mot_HHH_b2_03246_000000021_0001_20_36_H_._HHH_b1_02485_0001_0000200011_0000001_1_af2pred_0001_1_af2pred_swapped (protein)
chain: SSSDTEELAREAEEEARRLLEEGNPEEAFAVLLRAFQKLLELNDEEAEKIVHEVRQEVLERSSSS
B13: il2ra_site1_1z92_sap_12_mot_22370d59370c406a0c205a431f537cfa_0001_000000027_0001_1_14_H_._HHH_b2_07592_0001_0000500030_0000001_0_0001_af2pred_0001_af2pred (protein)
chain: SSSSSDIVAEFLIRHIERAIEQNNKESAERALRLLKKLAKAENDEKLEEIIEELEREVKSSSSSS
B14: il2ra_site2_2erj_normal_mot_8fa6976bf83f87873b50afdd12020151_0001_1_000000155_0001_14_31_H_._HHH_b2_02569_af2_0001_0000200027_0000001_0 (protein)
chain: SSSSSEELEEAFELLNRLIRALHEGDEELAEELLEEAEELLKHLGNEDFLRLLEKFFEQQRSSSS
B15: il2ra_site1_2b5i_sap_12_mot_HHH_b1_01240_af2_000000288_0001_42_55_H_._HHH_b1_08370_af2_0001_0000500032_0000001_0_0001 (protein)
chain: SLEEVEEELKKLVNDPEAERLIEEVVKQAERLNQPPEQLLSALFLVARARGDKELREAVQALMKK
B16: il2ra_site1_1z92_normal_mot_f45a65fa70d066dfb2bff9ecbb6071cf_0001_000000240_0001_35_50_H_._8c743c81d45538ffdda9094a56d977d2_0001_0001_0000100013_0000001_0_af2pr … (protein)
chain: DAREALEEHEEELGDPEEAVEVLFRYLEELTGDPRNAEIYLRQVLERLGIPPEEVERLLRLAKER
B17: il2ra_site1_2b5i_normal_mot_f5ff40796168375b462bec8614a1db4a_0001_1_000000138_0001_53_65_H_._HHH_b2_07452_0001_0000500039_0000001_0_af2pred_dldesign_0_af2pred (protein)
chain: SSSSDLRDIVEELIEEAKRLKEEGDLERAYKLLVLARRAARKGGLEDTVARLDELLEELRSSSSS
B18: il2ra_site1_2b5i_sap_12_mot_627d5055ffbafe6b99dea3f03486282b_0001_1_000000067_0001_18_32_H_._448c55fe706e6ec391655c6bc0ba6a29_0001_1_af2_0001_0000300012_0000001 … (protein)
chain: SSSSSSSLEELTRELLAKAAKEKDPLKRKKILLLARRTAKKAGNEELLAEVEARLASLSSSSSSS

Some of the results follow.

The target in this assay is il2ra, P01589. Nature of the assay: yeast display titration.
What is called apparent Kd is the concentration giving half-maximal binding under the conditions of the assay. On to B1, for which the “apparent Kd” value is “inactive: no binding seen”. As for B2, the apparent Kd is inactive: > 2.63 nM. The result for B3 reads “inactive: no binding seen”. The result for B4 reads “inactive: no binding seen”; that for B5, “inactive: no binding seen”. Then B6, with “inactive: no binding seen”; and B7, with “inactive: no binding seen”; and B8, with “inactive: no binding seen”. Consider B9, for which the “apparent Kd” value is “inactive: no binding seen”. The result for B10 reads “inactive: no binding seen”; that for B11, “inactive: no binding seen”.

For B12, the “apparent Kd” value was “inactive: no binding seen”. Then B13, with “inactive: no binding seen”; and B14, with “inactive: no binding seen”. As for B15, the “apparent Kd” value is “inactive: no binding seen”.

For B16, the “apparent Kd” value is “inactive: no binding seen”. Consider B17, for which the “apparent Kd” value was “inactive: no binding seen”. B18: the “apparent Kd” value is “inactive: no binding seen”.

These data come from paper PMC10163288.
